T/C and survivor count data for twelve molecules are collected here from PubChem BioAssay AID256 (DTP/NCI, 2004).

The list shows only some results of the screen, not a fair sample: it is rich in T/C values a quarter to a half above the control, in often repeated tests (any T/C) and in doses without a T/C. Further doses and runs are listed elsewhere. T/C gives the treated animals as a percentage of the vehicle group. Some doses have a count of surviving animals in place of a T/C: the source holds a T/C of zero for them, seemingly a mark for toxic or unscored doses. Some doses without a T/C left all or most animals alive at the check, yet need not have been tolerated: survival well below the control is almost never listed, so the zero probably covers shortened survival too. Survivors were counted at the toxicity check, usually on the fifth day, unless a day is given; later deaths do not show. Schedules are NCI's codes, read here as Q, the interval in days (D) or hours (H), X, the number of doses. Some entries were tested several times; the results are listed from low to high. For survival time, the PubChem record calls one and a half times the control and up active, and a quarter to a half above the control has no call in these data; cut-offs in other NCI protocols can differ. Counts like (3×) stand for listed records that agree. Some T/C values carry the count of animals alive at the toxicity check (mostly the fifth day); without a count, all were alive then.

The assay relates to CD2F1 mice, L1210 leukemia ip, survival T/C. As to the kind of experiment: NCI In Vivo Anticancer Drug Screen. Data for tumor model L1210 Leukemia (intraperitoneal) in CD2F1 (CDF1) mice. To be noted: higher T/C = longer survival. The procedure, abridged:
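Read-out first: treated-group measurement over vehicle-control measurement, expressed as a ratio. Animals bore a transplanted tumor line and were dosed with compound or vehicle.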

[1] abbreviates: T/C endpoint: mean survival time, dose: 200.0 mg/kg/injection, schedule: Q04DX003 (ip), vehicle: other.
[2] abbreviates: T/C endpoint: mean survival time, dose: 200.0 mg/kg/injection, schedule: Q04DX003 (ip), vehicle: saline with Tween-80.
Setting [3] is: T/C endpoint: mean survival time, dose: 400.0 mg/kg/injection, schedule: Q04DX003 (ip), vehicle: other.
Where [4] appears, read: T/C endpoint: mean survival time, dose: 400.0 mg/kg/injection, schedule: Q04DX003 (ip), vehicle: saline with Tween-80.
[5] abbreviates: T/C endpoint: mean survival time, dose: 400.0 mg/kg/injection, schedule: Q04DX002 (ip), vehicle: saline with Tween-80.
[6] abbreviates: T/C endpoint: mean survival time, dose: 200.0 mg/kg/injection, schedule: Q01DX009 (ip), vehicle: saline with Tween-80.

Take `Cc1ccc(S(=O)(=O)N/N=C/C(=O)O)cc1`: the T/C was 111, 118, 126, 130 (2×), 132, 134 % of control (T/C endpoint: mean survival time, dose: 50.0 mg/kg/injection, schedule: Q04DX003 (ip), vehicle: other); 143 % of control [5 of 6 alive] (T/C endpoint: mean survival time, dose: 100.0 mg/kg/injection, schedule: Q01DX009 (ip), vehicle: other); 110, 132, 134 (2×), 138, 143, 145 % of control (T/C endpoint: mean survival time, dose: 100.0 mg/kg/injection, schedule: Q04DX003 (ip), vehicle: other); 131 % of control (T/C endpoint: mean survival time, dose: 200.0 mg/kg/injection, schedule: Q04DX003 (ip), vehicle: Klucel (hydroxypropylcellulose) (HPC)); 130 [5 of 6 alive], 151, 159, 159 [5 of 6 alive], 160, 166 % of control under setting [1]; 131 % of control under setting [2]. In addition, the T/C is 94 [5 of 6 alive] and 105 % of control [5 of 6 alive] under setting [3]; 146 % of control under setting [4]; 132 % of control (T/C endpoint: median survival time, dose: 4.0 mg/kg/injection, schedule: Q03HX016 (ip), vehicle: saline); 131 % of control (T/C endpoint: median survival time, dose: 8.0 mg/kg/injection, schedule: Q01DX009 (ip), vehicle: saline); 137 % of control (T/C endpoint: median survival time, dose: 8.0 mg/kg/injection, schedule: Q03HX008 (ip), vehicle: saline); 144 % of control (T/C endpoint: median survival time, dose: 8.0 mg/kg/injection, schedule: Q03HX016 (ip), vehicle: saline). The T/C (T/C endpoint: median survival time, dose: 8.0 mg/kg/injection, schedule: Q03HX024 (ip), vehicle: saline) is 133 % of control; the T/C (T/C endpoint: median survival time, dose: 16.0 mg/kg/injection, schedule: Q01DX009 (ip), vehicle: saline) is 144 % of control; the T/C (T/C endpoint: median survival time, dose: 16.0 mg/kg/injection, schedule: Q03HX008 (ip), vehicle: saline) is 143 % of control; the T/C (T/C endpoint: median survival time, dose: 16.0 mg/kg/injection, schedule: Q03HX016 (ip), vehicle: saline) is 138 % of control [7 of 10 alive]; the T/C (T/C endpoint: median survival time, dose: 16.0 mg/kg/injection, schedule: Q03HX024 (ip), vehicle: saline) was 131 % of control [9 of 10 alive]; the T/C (T/C endpoint: median survival time, dose: 16.0 mg/kg/injection, schedule: Q04DX003 (ip), vehicle: saline) was 134 % of control. The T/C (T/C endpoint: median survival time, dose: 16.0 mg/kg/injection, schedule: Q08DX002 (ip), vehicle: saline) is 134 % of control; the T/C (T/C endpoint: median survival time, dose: 32.0 mg/kg/injection, schedule: Q01DX001 (ip), vehicle: saline) was 132 % of control; the T/C (T/C endpoint: median survival time, dose: 32.0 mg/kg/injection, schedule: Q03HX008 (ip), vehicle: saline) was 146 % of control [8 of 10 alive]; the T/C (T/C endpoint: median survival time, dose: 32.0 mg/kg/injection, schedule: Q04DX003 (ip), vehicle: saline) was 141 % of control; the T/C (T/C endpoint: median survival time, dose: 32.0 mg/kg/injection, schedule: Q08DX002 (ip), vehicle: saline) was 143 % of control; the T/C (T/C endpoint: median survival time, dose: 64.0 mg/kg/injection, schedule: Q01DX001 (ip), vehicle: saline) is 135 % of control [9 of 10 alive]. Moreover, the T/C is, setting by setting: (T/C endpoint: median survival time, dose: 64.0 mg/kg/injection, schedule: Q08DX002 (ip), vehicle: saline) 149 % of control [9 of 10 alive]; (T/C endpoint: median survival time, dose: 128.0 mg/kg/injection, schedule: Q01DX001 (ip), vehicle: saline) 143 % of control [8 of 10 alive]; (T/C endpoint: median survival time, dose: 128.0 mg/kg/injection, schedule: Q01DX009 (ip), vehicle: saline) 131 % of control [9 of 10 alive]; (T/C endpoint: median survival time, dose: 256.0 mg/kg/injection, schedule: Q01DX001 (ip), vehicle: saline) 138 % of control [8 of 10 alive]; (T/C endpoint: median survival time, dose: 256.0 mg/kg/injection, schedule: Q04DX003 (ip), vehicle: saline) 134 % of control [8 of 10 alive]; (T/C endpoint: median survival time, dose: 256.0 mg/kg/injection, schedule: Q08DX002 (ip), vehicle: saline) 143 % of control [7 of 10 alive]. Further, under “T/C endpoint: median survival time, dose: 512.0 mg/kg/injection, schedule: Q01DX009 (oral), vehicle: saline”, the T/C is 126 % of control. For the same molecule, the survivor count was 6 of 6 under setting [1]; 0 of 6 and 1 of 6 (T/C endpoint: mean survival time, dose: 400.0 mg/kg/injection, schedule: Q01DX009 (ip), vehicle: other); 0 of 6, 1 of 6, 4 of 6 under setting [3]; 5 of 10 (T/C endpoint: median survival time, dose: 64.0 mg/kg/injection, schedule: Q03HX008 (ip), vehicle: saline); 6 of 10 (T/C endpoint: median survival time, dose: 64.0 mg/kg/injection, schedule: Q03HX016 (ip), vehicle: saline); 6 of 10 (T/C endpoint: median survival time, dose: 512.0 mg/kg/injection, schedule: Q01DX001 (ip), vehicle: saline). Further, the survivor count is 6 of 10 (T/C endpoint: median survival time, dose: 512.0 mg/kg/injection, schedule: Q08DX002 (ip), vehicle: saline) and 5 of 10 (T/C endpoint: median survival time, dose: 2048.0 mg/kg/injection, schedule: Q01DX001 (oral), vehicle: saline).

Take `CC(=O)Oc1cccc2cc3cc(C)cc(OC(C)=O)c3c(OC(C)=O)c12`: the survivor count is 0 of 6 (T/C endpoint: mean survival time, dose: 100.0 mg/kg/injection, schedule: Q01DX001 (ip), vehicle: saline); 0 of 6 (T/C endpoint: mean survival time, dose: 200.0 mg/kg/injection, schedule: Q01DX001 (ip), vehicle: saline); 0 of 6 (T/C endpoint: mean survival time, dose: 400.0 mg/kg/injection, schedule: Q01DX001 (ip), vehicle: saline).

On to `O=S(=O)(F)c1ccc(Cl)c(Cl)c1S`, for which the survivor count under setting [5] was 0 of 3.

Take `Cc1cc([N+](=O)[O-])c2ccccc2[n+]1[O-]`: the survivor count is on record as 5 of 6 under setting [2] and 0 of 6 under setting [4].

In the case of `Cc1noc2nccnc12`, the survivor count runs as follows: under setting [6], 3 of 6; under setting [2], 5 of 6; under setting [4], 0 of 6.

As to `CCCCCCOc1ccc(N=Cc2ccc(N(C)C)cc2)cc1`, the survivor count (T/C endpoint: mean survival time, dose: 300.0 mg/kg/injection, schedule: Q01DX001 (ip), vehicle: other) is reported as 0 of 6.

For `CC1(C)COCN1COC1CCCCC1`, under “T/C endpoint: mean survival time, dose: 400.0 mg/kg/injection, schedule: Q01DX009 (ip), vehicle: suspension in saline”, the survivor count is on record as 0 of 10.

`N=C(N)SSCc1ccco1`: the survivor count (T/C endpoint: mean survival time, dose: 100.0 mg/kg/injection, schedule: Q04DX002 (ip), vehicle: saline with Tween-80) is 0 of 3; the survivor count (T/C endpoint: mean survival time, dose: 200.0 mg/kg/injection, schedule: Q04DX002 (ip), vehicle: saline with Tween-80) is 0 of 3; the survivor count under setting [5] was 0 of 3.

With `ClCc1ccc(Cl)c(Cl)c1Cl`, the survivor count runs as follows: (T/C endpoint: mean survival time, dose: 100.0 mg/kg/injection, schedule: Q04DX003 (ip), vehicle: saline with Tween-80) 6 of 6; under setting [2], 3 of 6; under setting [4], 0 of 6.

As for `CC(C)(CCC(=O)O)c1cccc(Cl)c1`, the survivor count under setting [6] was 0 of 3.

With `C=C(NC(C)=O)C(=O)CCC(N)=O`, the survivor count (T/C endpoint: mean survival time, dose: 40.0 mg/kg/injection, schedule: Q04DX003 (ip), vehicle: saline) is on record as 1 of 6.

As for `Cc1cc(NC(=O)Oc2ccc([N+](=O)[O-])cc2)ccc1S(=O)(=O)F`, the T/C (T/C endpoint: mean survival time, dose: 100.0 mg/kg/injection, schedule: Q01DX009 (ip), vehicle: saline with Tween-80) was 91, 95, 96 % of control (2×). Also, the survivor count was 3 of 3 under setting [6]; 1 of 3 and 5 of 6 (T/C endpoint: mean survival time, dose: 400.0 mg/kg/injection, schedule: Q01DX009 (ip), vehicle: saline with Tween-80).
